The assay deals with primary human hepatic stellate cells (donor 1). Nature of the assay: percent Bodipy-positive cells; higher = more lipid droplet accumulation. The following applies: 48 h.
The mark [1] stands for this setting: library stock concentration: 3.33 mM.
Where [2] appears, read: library stock concentration: 1 mM.
The mark [3] stands for this setting: library stock concentration: 10 mM.
The mark [4] stands for this setting: library stock concentration: 80 uM.
The mark [5] stands for this setting: library stock concentration: 400 uM.

Values joined by “and” are separate entries in the source; they are usually repeats but may differ in a detail not shown here. Equal entries are not always repeated. Structures can show the parent of a compound that is named as a salt. ± gives the standard deviation of the averaged measurements. The list shows a part of the results. Plates or batches differ in their baseline, so values are only roughly comparable.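 Primary human stellate myofibroblasts activated in culture; inactivation shown by regained lipid droplets. Readout: fraction of Hoechst-counted cells exceeding a per-plate Bodipy threshold, duplicate wells, each plate with DMSO negative and nortriptyline positive controls. Hits: control-normalized score beyond the plate's top-tenth-percentile nortriptyline wells, or among its three best wells. Final well concentrations unstated.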

`COc1ccc(S(=O)(=O)N(CCO)c2ccccc2CN(C)C/C=C/c2ccc(Cl)cc2)cc1` [KN-93 Phosphate]: the “percent Bodipy-positive cells” value under setting [1] stood at 63.4 ± 6.2%.

With `CCCCCCCCCCCCCCCC(=O)NC[C@@H](C)O` [R-Palmitoyl-(2-methyl) Ethanolamide], the “percent Bodipy-positive cells” value under setting [2] was 18.6 ± 14%.

In the case of `CC(=O)Oc1cccc(C)c1` [meta-CRESYL ACETATE], under setting [3], the “percent Bodipy-positive cells” value was determined as 33 ± 10%.

Turning to `COc1ccc2c(c1)c(CC(=O)Nc1cccnc1)c(C)n2C(=O)c1ccc(Cl)cc1` [N-(3-pyridyl)-Indomethacin amide], the “percent Bodipy-positive cells” value under setting [2] is 22.5 ± 0.46%.

Turning to `CC(C)Oc1ccc(C(=O)N[C@H](CNC(=O)CN(C)C)Cc2ccc(-c3cn4cccc([C@H](C)O)c4n3)cc2)cc1Cl`, under setting [3], the “percent Bodipy-positive cells” value stood at 90.5 ± 3%.

In the case of `NS(=O)(=O)c1ccc(-n2nc(C(F)(F)F)cc2-c2ccc(Cl)cc2)cc1`, the “percent Bodipy-positive cells” value under setting [3] amounted to 54.8 ± 12%.

As for `COc1cccc(C(=O)NCCN2CCN(c3ccc(Cl)cc3)CC2)c1`, the “percent Bodipy-positive cells” value under setting [3] amounted to 64 ± 6.4%.

Consider `CCCCC[C@@H](O)/C=C/[C@H]1[C@H](O)CC(=O)[C@@H]1C/C=C\CCCC(=O)O` [15(R)-Prostaglandin E2], for which the “percent Bodipy-positive cells” value under setting [2] was determined as 17.6 ± 5.6%.

Turning to `c1ccc(CNc2ncnc3nc[nH]c23)cc1` [Aminopurine, 6-benzyl], the “percent Bodipy-positive cells” value stood at 26.9 ± 4.5%.

With `CCN[C@@H]1C[C@H](N)[C@@H](O[C@H]2OC(CN)=CC[C@H]2N)[C@H](O)[C@H]1O[C@H]1OC[C@](C)(O)[C@H](NC)[C@H]1O` [Netilmicin sulfate], under “library stock concentration: 3 mM”, the “percent Bodipy-positive cells” value came to 8.85 ± 3.4%.

For `O=C1NC(=O)C(=Cc2ccc(-c3ccc(F)cc3)o2)S1` (stereo in doubt), the “percent Bodipy-positive cells” value amounted to 4.67 ± 0.65% under setting [1] and 14.3 ± 0.53% under setting [3].

Turning to `O=C1NC(=O)C(c2ccccc2)(c2ccccc2)N1` [Dilantin], the “percent Bodipy-positive cells” value under setting [3] was determined as 26.7 ± 3%.

Consider `O=C1NC(=O)C(c2ccccc2)(c2ccccc2)N1` [Phenytoin], for which the “percent Bodipy-positive cells” value under setting [1] was found to be 26.7 ± 1.9%, the “percent Bodipy-positive cells” value (library stock concentration: 7.9 mM) was 5.59 ± 1.7% and the “percent Bodipy-positive cells” value under setting [3] was 10.3 ± 2.3%.

Regarding `O=C1NC(=O)C(c2ccccc2)(c2ccccc2)N1` [5,5-Diphenylhydantoin], the “percent Bodipy-positive cells” value under setting [3] came out at 39.7 ± 16%.

As for `CC(C)(O)c1ccccc1CC[C@@H](SCC1(CC(=O)O)CC1)c1cccc(/C=C/c2ccc3ccc(Cl)cc3n2)c1` [Montelukast Sodium], the “percent Bodipy-positive cells” value under setting [1] was determined as 10.5 ± 2.4% and the “percent Bodipy-positive cells” value under setting [3] stood at 31.4 ± 7.3%.

On to `CC(C)(O)c1ccccc1CC[C@@H](SCC1(CC(=O)O)CC1)c1cccc(/C=C/c2ccc3ccc(Cl)cc3n2)c1` [Montelukast (sodium salt)], for which, under setting [2], the “percent Bodipy-positive cells” value was 17.5 ± 5.8%.

For `CC(C)(O)c1ccccc1CC[C@@H](SCC1(CC(=O)O)CC1)c1cccc(/C=C/c2ccc3ccc(Cl)cc3n2)c1`, the “percent Bodipy-positive cells” value reads like this: (library stock concentration: 9.6 mM) 11.5 ± 0.83%; under setting [3], 14.5 ± 0.3%.

`CN(C)C/C=C/C(=O)Nc1cc2c(Nc3ccc(F)c(Cl)c3)ncnc2cc1O[C@H]1CCOC1`: the “percent Bodipy-positive cells” value by setting is: under setting [4], 65 ± 19%; under setting [5], 61.2 ± 1.2%; under setting [3], 99.41 ± 0.84%.

As to `CN(C)C/C=C/C(=O)Nc1cc2c(Nc3ccc(F)c(Cl)c3)ncnc2cc1O[C@H]1CCOC1` [Afatinib  (TOVOK,  BIBW-2992) (10 mM)], under setting [3], the “percent Bodipy-positive cells” value was 100%.

Take `CN(C)C/C=C/C(=O)Nc1cc2c(Nc3ccc(F)c(Cl)c3)ncnc2cc1O[C@H]1CCOC1` [Afatinib  (TOVOK,  BIBW-2992) (0.4 mM)]: the “percent Bodipy-positive cells” value under setting [5] was found to be 71.4 ± 14%.

Regarding `CN(C)C/C=C/C(=O)Nc1cc2c(Nc3ccc(F)c(Cl)c3)ncnc2cc1O[C@H]1CCOC1` [Afatinib (BIBW2992)], under setting [3], the “percent Bodipy-positive cells” value came out at 100%.

In the case of `CN1Cc2c(N)cccc2C(c2ccccc2)C1` (stereo unspecified) [Nomifensine maleate], the “percent Bodipy-positive cells” value was found to be 66 ± 11%.

`O=C1C(c2ccccc2)N(c2ccc(Br)cc2)C(=O)N1c1ccc(Br)cc1` (stereo unspecified): the “percent Bodipy-positive cells” value under setting [2] is 9.97 ± 1.5%.

For the molecule `O=C(Nc1ccccc1)Nc1ccc(-c2ccc(C(=O)[C@@H]3CCC[C@H]3C(=O)O)cc2)cc1`, the “percent Bodipy-positive cells” value reads like this: under setting [1], 9.93 ± 4.7%; under setting [3], 13.2 ± 5%.

For the molecule `FC(F)(F)COCC(F)(F)F` [Flurothyl], the “percent Bodipy-positive cells” value (library stock concentration: 11 mM) worked out at 4.22 ± 3.4%.

Take `OC[C@@H](O)[C@@H](O)[C@@H](O)CO` [Ribitol]: the “percent Bodipy-positive cells” value was 13.6 ± 0.87% under setting [1] and 16.8 ± 1.3% under setting [3].

For `CCCCCCCCCCCCC/C=C/[C@@H](O)[C@@H](N)CO` [Sphingosine], the “percent Bodipy-positive cells” value under setting [2] was determined as 11.7 ± 12%.

Consider `COc1ccccc1OCC(O)COC(N)=O` (stereo unspecified) [Methocarbamol], for which the “percent Bodipy-positive cells” value is 23.8 ± 3.7%. Under setting [1], the “percent Bodipy-positive cells” value amounted to 15.7 ± 2.2%. In addition, the “percent Bodipy-positive cells” value (library stock concentration: 8.3 mM) is 4.35 ± 0.14%. In addition, under setting [3], the “percent Bodipy-positive cells” value is 12.9% and 14.7%.

With `O=C1NCCCc2c1oc1ccc(O)cc21`, the “percent Bodipy-positive cells” value reads like this: under setting [4], 8.28 ± 3%; under setting [5], 14.2 ± 1.2%; (library stock concentration: 2 mM) 10.8 ± 1.4%; under setting [3], 12.7 ± 0.84%.

For the molecule `CCc1c(Cl)c(O)c(Cl)c(O)c1C(=O)O[C@H]1[C@H](O)[C@H](OC)[C@H](OC/C2=C\C=C\C[C@H](O)/C(C)=C/[C@H](CC)[C@@H](O[C@@H]3OC(C)(C)[C@@H](OC(=O)C(C)C)[C@H](O)[C@@H]3O)/C(C)=C/C(C)=C/C[C@@H]([C@@H](C)O)OC2=O)O[C@@H]1C` [Fidaxomicin], the “percent Bodipy-positive cells” value runs as follows: under setting [1], 14.6 ± 5.6%; under setting [3], 40.3 ± 0.57%.

Consider `Nc1ccn([C@@H]2CS[C@H](CO)O2)c(=O)n1`, for which the “percent Bodipy-positive cells” value amounted to 7.61 ± 4.1% (library stock concentration: 9.9 mM) and 28.4 ± 2.9% under setting [3].

Take `Nc1ccn([C@@H]2CS[C@H](CO)O2)c(=O)n1` [Lamivudine]: the “percent Bodipy-positive cells” value stood at 4.86 ± 2% under setting [1] and 9.13 ± 0.56% under setting [3].

As for `Nc1c2c(nc3ccccc13)CCCC2O` (stereo unspecified) [Hydroxytacrine maleate], the “percent Bodipy-positive cells” value is, setting by setting: (library stock concentration: 9.3 mM) 7.03 ± 1.6%; under setting [3], 65.7 ± 16%.

`Cc1cc(N)c2ccccc2[n+]1CCCCCCCCCC[n+]1c(C)cc(N)c2ccccc21` [Dequalinium dichloride]: the “percent Bodipy-positive cells” value amounted to 49.8 ± 12%.

With `Cc1cc(N)c2ccccc2[n+]1CCCCCCCCCC[n+]1c(C)cc(N)c2ccccc21` [Dequalinium chloride], under setting [3], the “percent Bodipy-positive cells” value is 49.5 ± 6.5%.

Take `Cc1cc(N)c2ccccc2[n+]1CCCCCCCCCC[n+]1c(C)cc(N)c2ccccc21` [Dequalinium chloride hydrate]: under setting [3], the “percent Bodipy-positive cells” value worked out at 42.5 ± 32%.

With `CCCCCCCC/C=C\CCCCCCCC(=O)N[C@H](CO)Cc1ccc(O)cc1`, under setting [2], the “percent Bodipy-positive cells” value was found to be 10.7 ± 1.7%.
